This series concerns tubulin derived from bovine brain or HeLa cells. As to the kind of experiment: Photoaffinity labeling of tubulin and peptide mapping of the labeling site. The format is binding, bovine; human. The settings on record: for tubulin subunit photolabeled: bovine brain and HeLa cell tubulin, SDS-PAGE and fluorography; for photoaffinity labeling / binding site on α-tubulin (residues): combined chemical and enzymatic digests of photolabeled bovine brain tubulin.

In the case of `CN[C@H](C(=O)N[C@H](C(=O)N(C)[C@H](/C=C(\C)C(=O)O)C(C)C)C(C)(C)C)C(C)(C)c1ccc(C(=O)c2ccccc2)cc1` [Probe 1, 4-benzoyl-N,β,β-trimethyl-L-phenylalanyl-N^1-[(1S,2E)-3-carboxy-1-isopropylbut-2-enyl]-N^1,3-dimethyl-L-valinamide], the tubulin subunit photolabeled entry is given as “binds exclusively to α-tubulin” and the “photoaffinity labeling / binding site on α-tubulin (residues)” value is 314-338. Further, the cross-linking efficiency entry (under optimal conditions) is reported as “approximately 1.5%”.
For the compound `CN[C@H](C(=O)N[C@H](C(=O)N(C)[C@H](/C=C(\C)C(=O)O)C(C)C)C(C)(C)c1ccc(C(=O)c2ccccc2)cc1)C(C)(C)c1ccccc1` [Probe 2, N,β,β-trimethyl-L-phenylalanyl-4-benzoyl-N-[(1S,2E)-3-carboxy-1-isopropyl-2-butenyl]-N,β,β-trimethyl-L-phenylalaninamide], the tubulin subunit photolabeled result was “exclusively labels α-tubulin” and the “photoaffinity labeling / binding site on α-tubulin (residues)” value is recorded as 204-280.

For the origin of these results see patent publication US20070026478A1, “Hemiasterlin affinity probes and their uses” (WYETH, priority 2002, published 2007).
